Patent publication US20250283871A1, “COMPOSITIONS AND METHODS FOR MODULATING THE INTERACTION BETWEEN SS18-SSX FUSION ONCOPROTEIN AND NUCLEOSOMES” (Dana-Farber Cancer Institute, Inc., priority 2020, published 2025)

B1: SF3B1 (protein)
chain: MAKIAKTHEDIEAQIREIQGKKAALDEAQGVGLDSTGYYDQEIYGGSDSRFAGYVTSIAATELEDDDDDYSSSTSLLGQKKPGYHAPVALLNDIPQSTEQYDPFAEHRPPKIADREDEYKKHRRTMIISPERLDPFADGGKTPDPKMNARTYMDVMREQHLTKEEREIRQQLAEKAKAGELKVVNGAAASQPPSKRKRRWDQTADQTPGATPKKLSSWDQAETPGHTPSLRWDETPGRAKGSETPGATPGSKIWDPTPSHTPAGAATPGRGDTPGHATPGHGGATSSARKNRWDETPKTERDTPGHGSGWAETPRTDRGGDSIGETPTPGASKRKSRWDETPASQMGGSTPVLTPGKTPIGTPAMNMATPTPGHIMSMTPEQLQAWRWEREIDERNRPLSDEELDAMFPEGYKVLPPPAGYVPIRTPARKLTATPTPLGGMTGFHMQTEDRTMKSVNDQPSGNLPFLKPDDIQYFDKLLVDVDESTLSPEEQKERKIMKLLLKIKNGTPPMRKAALRQITDKAREFGAGPLFNQILPLLMSPTLEDQERHLLVKVIDRILYKLDDLVRPYVHKILVVIEPLLIDEDYYARVEGREIISNLAKAAGLATMISTMRPDIDNMDEYVRNTTARAFAVVASALGIPSLLPFLKAVCKSKKSWQARHTGIKIVQQIAILMGCAILPHLRSLVEIIEHGLVDEQQKVRTISALAIAALAEAATPYGIESFDSVLKPLWKGIRQHRGKGLAAFLKAIGYLIPLMDAEYANYYTREVMLILIREFQSPDEEMKKIVLKVVKQCCGTDGVEANYIKTEILPPFFKHFWQHRMALDRRNYRQLVDTTVELANKVGAAEIISRIVDDLKDEAEQYRKMVMETIEKIMGNLGAADIDHKLEEQLIDGILYAFQEQTTEDSVMLNGFGTVVNALGKRVKPYLPQICGTVLWRLNNKSAKVRQQAADLISRTAVVMKTCQEEKLMGHLGVVLYEYLGEEYPEVLGSILGALKAIVNVIGMHKMTPPIKDLLPRLTPILKNRHEKVQENCIDLVGRIADRGAEYVSAREWMRICFELLELLKAHKKAIRRATVNTFGYIAKAIGPHDVLATLLNNLKVQERQNRVCTTVAIAIVAETCSPFTVLPALMNEYRVPELNVQNGVLKSLSFLFEYIGEMGKDYIYAVTPLLEDALMDRDLVHRQTASAVVQHMSLGVYGFGCEDSLNHLLNYVWPNVFETSPHVIQAVMGALEGLRVAIGPCRMLQYCLQGLFHPARKVRDVYWKIYNSIYIGSQDALIAHYPRIYNDDKNTYIRYELDYIL
B2: MIS18BP1 (protein, UniProt Q6P0N0 1-1132, looked up)
Mis18-binding protein 1: MIATPLKHSRIYLPPEASSQRRNLPMDAIFFDSIPSGTLTPVKDLVKYQNSSLKLNDHKKNQFLKMTTFNNKNIFQSTMLTEATTSNSSLDISAIKPNKDGLKNKANYESPGKIFLRMKEKVLRDKQEQPSRNSSLLEPQKSGNNETFTPNRVEKKKLQHTYLCEEKENNKSFQSDDSSLRASVQGVPLESSNNDIFLPVKQKIQCQQEKKAPLHNLTYELPTLNQEQENFLAVEARNKTLTRAQLAKQIFHSKESIVATTKSKKDTFVLESVDSADEQFQNTNAETLSTNCIPIKNGSLLMVSDSERTTEGTSQQKVKEGNGKTVPGETGLPGSMKDTCKIVLATPRLHITIPRRSKRNISKLSPPRIFQTVTNGLKKNQVVQLQEWMIKSINNNTAICVEGKLIDVTNIYWHSNVIIERIEHNKLRTISGNVYILKGMIDQISMKEAGYPNYLIRKFMFGFPENWKEHIDNFLEQLRAGEKNREKTKQKQKTGRSVRDIRKSMKNDARENQTDTAQRATTTYDFDCDNLELKSNKHSESPGATELNMCHSNCQNKPTLRFPDDQVNNTIQNGGGDDLSNQELIGKKEYKMSSKKLKIGERTNERIIKSQKQETTEELDVSIDILTSREQFFSDEERKYMAINQKKAYILVTPLKSRKVIEQRCMRYNLSAGTIKAVTDFVIPECQKKSPISKSMGTLENTFEGHKSKNKEDCDERDLLTVNRKIKISNLEKEQMLTSDFKKNTRLLPKLKKIENQVAMSFYKHQSSPDLSSEESETEKEIKRKAEVKKTKAGNTKEAVVHLRKSTRNTSNIPVILEPETEESENEFYIKQKKARPSVKETLQKSGVRKEFPITEAVGSDKTNRHPLECLPGLIQDKEWNEKELQKLHCAFASLPKHKPGFWSEVAAAVGSRSPEECQRKYMENPRGKGSQKHVTKKKPANSKGQNGKRGDADQKQTIKITAKVGTLKRKQQMREFLEQLPKDDHDDFFSTTPLQHQRILLPSFQDSEDDDDILPNMDKNPTTPSSVIFPLVKTPQCQHVSPGMLGSINRNDCDKYVFRMQKYHKSNGGIVWGNIKKKLVETDFSTPTPRRKTPFNTDLGENSGIGKLFTNAVESLDEEEKDYYFSNSDSA
B3: NKTR (protein, UniProt P30414 1-1462, looked up)
NK-tumor recognition protein: MGAQDRPQCHFDIEINREPVGRIMFQLFSDICPKTCKNFLCLCSGEKGLGKTTGKKLCYKGSTFHRVVKNFMIQGGDFSEGNGKGGESIYGGYFKDENFILKHDRAFLLSMANRGKHTNGSQFFITTKPAPHLDGVHVVFGLVISGFEVIEQIENLKTDAASRPYADVRVIDCGVLATKSIKDVFEKKRKKPTHSEGSDSSSNSSSSSESSSESELEHERSRRRKHKRRPKVKRSKKRRKEASSSEEPRNKHAMNPKGHSERSDTNEKRSVDSSAKREKPVVRPEEIPPVPENRFLLRRDMPVVTAEPEPKIPDVAPIVSDQKPSVSKSGRKIKGRGTIRYHTPPRSRSCSESDDDDSSETPPHWKEEMQRLRAYRPPSGEKWSKGDKLSDPCSSRWDERSLSQRSRSWSYNGYYSDLSTARHSGHHKKRRKEKKVKHKKKGKKQKHCRRHKQTKKRRILIPSDIESSKSSTRRMKSSCDRERSSRSSSLSSHHSSKRDWSKSDKDVQSSLTHSSRDSYRSKSHSQSYSRGSSRSRTASKSSSHSRSRSKSRSSSKSGHRKRASKSPRKTASQLSENKPVKTEPLRATMAQNENVVVQPVVAENIPVIPLSDSPPPSRWKPGQKPWKPSYERIQEMKAKTTHLLPIQSTYSLANIKETGSSSSYHKREKNSESDQSTYSKYSDRSSESSPRSRSRSSRSRSYSRSYTRSRSLASSHSRSRSPSSRSHSRNKYSDHSQCSRSSSYTSISSDDGRRAKRRLRSSGKKNSVSHKKHSSSSEKTLHSKYVKGRDRSSCVRKYSESRSSLDYSSDSEQSSVQATQSAQEKEKQGQMERTHNKQEKNRGEEKSKSERECPHSKKRTLKENLSDHLRNGSKPKRKNYAGSKWDSESNSERDVTKNSKNDSHPSSDKEEGEATSDSESEVSEIHIKVKPTTKSSTNTSLPDDNGAWKSSKQRTSTSDSEGSCSNSENNRGKPQKHKHGSKENLKREHTKKVKEKLKGKKDKKHKAPKRKQAFHWQPPLEFGEEEEEEIDDKQVTQESKEKKVSENNETIKDNILKTEKSSEEDLSGKHDTVTVSSDLDQFTKDDSKLSISPTALNTEENVACLQNIQHVEESVPNGVEDVLQTDDNMEICTPDRSSPAKVEETSPLGNARLDTPDINIVLKQDMATEHPQAEVVKQESSMSESKVLGEVGKQDSSSASLASAGESTGKKEVAEKSQINLIDKKWKPLQGVGNLAAPNAATSSAVEVKVLTTVPEMKPQGLRIEIKSKNKVRPGSLFDEVRKTARLNRRPRNQESSSDEQTPSRDDDSQSRSPSRSRSKSETKSRHRTRSVSYSHSRSRSRSSTSSYRSRSYSRSRSRGWYSRGRTRSRSSSYRSYKSHRTSSRSRSRSSSYDPHSRSRSYTYDSYYSRSRSRSRSQRSDSYHRGRSYNRRSRSCRSYGSDSESDRSYSHHRSPSESSRYS
B4: CYC1 (protein, UniProt P08574 85-325, looked up)
Cytochrome c1, heme protein, …: SDLELHPPSYPWSHRGLLSSLDHTSIRRGFQVYKQVCASCHSMDFVAYRHLVGVCYTEDEAKELAAEVEVQDGPNEDGEMFMRPGKLFDYFPKPYPNSEAARAANNGALPPDLSYIVRARHGGEDYVFSLLTGYCEPPTGVSLREGLYFNPYFPGQAIAMAPPIYTDVLEFDDGTPATMSQIAKDVCTFLRWASEPEHDHRKRMGLKMLMMMALLVPLVYTIKRHKWSVLKSRKLAYRPPK
B5: RBM28 (protein, UniProt Q9NW13 2-759, looked up)
RNA-binding protein 28: AGLTLFVGRLPPSARSEQLEELFSQVGPVKQCFVVTEKGSKACRGFGYVTFSMLEDVQRALKEITTFEGCKINVTVAKKKLRNKTKEKGKNENSECPKKEPKAKKAKVADKKARLIIRNLSFKCSEDDLKTVFAQFGAVLEVNIPRKPDGKMRGFGFVQFKNLLEAGKALKGMNMKEIKGRTVAVDWAVAKDKYKDTQSVSAIGEEKSHESKHQESVKKKGREEEDMEEEENDDDDDDDDEEDGVFDDEDEEEENIESKVTKPVQIQKRAVKRPAPAKSSDHSEEDSDLEESDSIDDGEELAQSDTSTEEQEDKAVQVSNKKKRKLPSDVNEGKTVFIRNLSFDSEEEELGELLQQFGELKYVRIVLHPDTEHSKGCAFAQFMTQEAAQKCLLAASPENEAGGLKLDGRQLKVDLAVTRDEAAKLQTTKVKKPTGTRNLYLAREGLIRAGTKAAEGVSAADMAKRERFELLKHQKLKDQNIFVSRTRLCLHNLPKAVDDKQLRKLLLSATSGEKGVRIKECRVMRDLKGVHGNMKGQSLGYAFAEFQEHEHALKALRLINNNPEIFGPLKRPIVEFSLEDRRKLKMKELRIQRSLQKMRSKPATGEPQKGQPEPAKDQQQKAAQHHTEEQSKVPPEQKRKAGSTSWTGFQTKAEVEQVELPDGKKRRKVLALPSHRGPKIRLRDKGKVKPVHPKKPKPQINQWKQEKQQLSSEQVSRKKAKGNKTETRFNQLVEQYKQKLLGPSKGAPLAKRSKWFDS
B6: ATF3 (protein, UniProt P18847 1-181, looked up)
Cyclic AMP-dependent …: MMLQHPGQVSASEVSASAIVPCLSPPGSLVFEDFANLTPFVKEELRFAIQNKHLCHRMSSALESVTVSDRPLGVSITKAEVAPEEDERKKRRRERNKIAAAKCRNKKKEKTECLQKESEKLESVNAELKAQIEELKNEKQHLIYMLNLHRPTCIVRAQNGRTPEDERNLFIQQIKEGTLQS

System: BAF complex subunits and histone proteins
Assay: Mass spectrometry proteomics of purified HA-SS18 WT and HA-SS18-SSX1 complexes (Tables 5A-5E)
Parameters: species or system human
Settings: for Total / Unique: HA-SS18SSX1_CHR_peptides; for Total: total peptides of the identified protein; for Unique: unique peptides of the identified protein
[1] = HA-SS18SSX1_CHR_peptides: protein identified in the HA-SS18-SSX1 purification from solubilized chromatin (CHR), HEK-293T
[2] = HA-SS18SSX1_NE_peptides: protein co-purified with HA-SS18-SSX1 BAF complexes from soluble nuclear extract (NE), HEK-293T cells
[3] = HA-SS18WT_CHR_peptides: HA-SS18 WT purification from nuclease-treated solubilized chromatin (CHR), HEK-293T, label = protein identified
[4] = HA-SS18WT_NE_peptides: HA-SS18 WT complexes purified from nuclear extract (NE), HEK-293T, label = protein identified (Gene Symbol)
[5] = HA-SS18WT_CHR_peptides: protein identified in HA-SS18 WT BAF complex purification from nuclease-treated solubilized chromatin (CHR), HEK-293T

Molecule | Total (total peptides) [1] | Unique (unique peptides) [1] | Total (peptides) [2] | Unique (peptides) [2] | Total (peptides) [3] | Unique (peptides) [3] | Total (peptides) [4] | Unique (peptides) [4] | Total | Unique | Total (total peptides) [5] | Unique (unique peptides) [5]
B1 | 28 | 27 | 1 | 1 | 15 | 15 | 3 | 3 | – | – | – | –
B2 | – | – | – | – | 3 | 3 | – | – | 2 | 2 | – | –
B3 | – | – | – | – | – | – | – | – | 2 | 2 | – | –
B4 | – | – | 2 | 2 | – | – | – | – | 2 | 2 | 2 | 2
B5 | – | – | – | – | – | – | – | – | 2 | 2 | 2 | 2
B6 | – | – | – | – | – | – | – | – | 2 | 2 | – | –
